Out of some 400,000 compounds screened, about 3,700 (0.93%) were called active. Inconclusive means that the source gave no clear call. Such entries were picked first, then a sample of the others. The call rests on the fitted dose curve; in most records, active means well fitted inhibition curve with a large enough effect; inconclusive means small, poorly fitted or top-dose-only effect, or another doubt; inactive means no such curve, though single readings can be large or run the other way. Potencies beside an inconclusive call are fits to weak or partial responses and may not hold up. Some compounds were tested as several samples or in several runs, with calls that do not always agree.
target: Vitamin D3 receptor (Homo sapiens) (UniProt P11473); assay: Inhibitors of the vitamin D receptor (VDR): qHTS; settings: VDR-SRC2-3 peptide fluorescence polarization, 2 h; max response, negative = inhibition: active compounds read low
Procedure, shortened: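 Measured by FP: displacement of SRC2-3 coactivator peptide from VDR by library compounds, following a two-hour ambient incubation.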
On the % scale 0 is the no-effect control and ±100 the full control effect; potency means the concentration at half of the fitted maximal effect.

Amino acid sequences for entries named in this document (tags omitted). A change or cut given only in a name is not applied to a line headed by its entry.
UniProt P11473: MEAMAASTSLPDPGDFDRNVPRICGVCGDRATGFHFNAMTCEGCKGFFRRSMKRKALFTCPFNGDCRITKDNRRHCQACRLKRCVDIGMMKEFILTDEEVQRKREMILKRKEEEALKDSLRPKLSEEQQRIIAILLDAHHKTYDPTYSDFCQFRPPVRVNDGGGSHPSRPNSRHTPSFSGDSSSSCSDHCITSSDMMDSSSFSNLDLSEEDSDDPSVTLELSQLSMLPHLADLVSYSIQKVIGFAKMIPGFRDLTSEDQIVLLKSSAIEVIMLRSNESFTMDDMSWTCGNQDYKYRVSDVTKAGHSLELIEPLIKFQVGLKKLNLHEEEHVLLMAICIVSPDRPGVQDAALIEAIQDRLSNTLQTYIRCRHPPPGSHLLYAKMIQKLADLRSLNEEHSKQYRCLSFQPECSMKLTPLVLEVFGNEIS

Structure (SMILES)	Potency	max response, negative = inhibition
Cc1ccc(/C=C/C(=O)N2CCCC(C(N)=O)C2)o1 (stereo unspecified)	inconclusive: 79.4 µM [inhibitor, partial curve, poor fit]	–
CCN(C(=O)CSc1nc2cc(S(=O)(=O)N(CC)CC)ccc2o1)C1CCS(=O)(=O)C1 (stereo unspecified)	inconclusive: 89.1 µM [inhibitor, single point]	–
CCCCNC1=CC(=O)C(NCCCC)=CC1=O	inconclusive: 50.1 µM [inhibitor, partial curve, poor fit]	–
COc1cccc(/C=N/NC(=O)Cn2cnc3c2c(=O)n(C)c(=O)n3C)c1	inconclusive: 56.2 µM [inhibitor, single point]	–
CCOC(=O)C1=C(C(F)(F)F)Nc2ncnn2C1c1cc(OC)ccc1OC (stereo unspecified)	inconclusive: 63.1 µM [inhibitor, partial curve, poor fit]	–
COc1ccc(Nc2nc(-c3ccccc3)nc3ccccc23)c(OC)c1	–	inactive: -15.8%
COCCNc1nc(-c2ccc(N(C)C)cc2)nc2ccccc12	active: 79.4 µM	–
CC(=O)Nc1ccc(SCC(CC(C)C)N2CCN(CCc3ccccc3)CCC2=O)cc1 (stereo unspecified)	inconclusive: 79.4 µM [inhibitor, partial curve]	–
O=S(=O)(c1ccc(-c2csc(=Nc3ccc(OC(F)(F)Cl)cc3)n2CCCO)cc1)N1CCCC1	–	inactive: -2.56%
CCCCn1c(NC(=O)c2ccco2)c(S(=O)(=O)c2ccc(C)cc2)c2nc3ccccc3nc21	inconclusive: 79.4 µM [inhibitor, partial curve]	–
C(=N\Nc1nc(Nc2ccccc2)nc(Nc2ccccc2)n1)/c1ccncc1	–	inactive: 19.6%
c1ccc2c(c1)CSc1ccccc1N2	–	inactive: 2.39%
CCOc1ccccc1NC(=O)CCNC(=O)c1ccc(Cl)cc1	inconclusive: 63.1 µM [inhibitor, single point]	–
Cc1ccc(C2C(C#N)=C(N)Oc3cc4c(cc32)OCO4)cc1 (stereo unspecified)	–	inactive: 2.79%
CCOC(=O)c1c(-c2ccccc2)csc1NC(=O)c1cc(-c2ccccc2OC)on1	inconclusive: 79.4 µM [inhibitor, single point]	–
Cc1ccccc1-c1nccc(NCCN2CCOCC2)n1	inconclusive: 44.7 µM [inhibitor, partial curve]	–
O=P1(O)Oc2c(-c3ccccc3)cc3ccccc3c2-c2c(c(-c3ccccc3)cc3ccccc23)O1	inconclusive: 70.8 µM [inhibitor, partial curve]	–
CN(C)c1nc(-c2ccoc2)nc2ccccc12	inconclusive: 56.2 µM [inhibitor, partial curve]	–
CCn1c(=O)c(C(=O)CN2CCN(S(=O)(=O)c3ccc(C)cc3C)CC2)c(N)n(Cc2ccccc2)c1=O	inconclusive: 100 µM [inhibitor, single point]	–
Cc1cccc(C(=O)Nc2nnc(-c3ccco3)o2)c1	–	inactive: 12.2%
O=C(O)COc1ccc(Br)cc1/C=C1/SC(=O)N(CC(=O)N2CCCC2)C1=O	inconclusive: 89.1 µM [inhibitor, single point]	–
COc1ccc(C(=O)NCCC(=O)N2CCC3(CC2)NCCc2[nH]cnc23)cc1	inconclusive: 31.6 µM [inhibitor, partial curve]	–

Structure (SMILES)	Potency	max response, negative = inhibition
CO[C@H]1C[C@@H]2CC[C@@H](C)[C@@](O)(O2)C(=O)C(=O)N2CCCC[C@H]2C(=O)OC([C@H](C)C[C@@H]2CC[C@@H](O)[C@H](OC)C2)CC(=O)[C@H](C)/C=C(\C)[C@@H](O)[C@@H](OC)C(=O)[C@H](C)C[C@H](C)/C=C/C=C/C=C/1C (stereo partly specified)	active: 44.7 µM	–
CCOc1ccccc1NC(=O)Nc1cc2c(cc1N1CCCCC1)n(CC)c(=O)n2CC	–	inactive: -1.01%
CCOC(=O)N/N=C\c1ccc(-c2cccc(C(F)(F)F)c2)o1	inconclusive: 89.1 µM [inhibitor, single point]	–
Nc1nc(N)c(N=Nc2ccc(Cl)cc2)c(=O)[nH]1	inconclusive: 89.1 µM [inhibitor, partial curve, poor fit]	–
Cc1ccc(NC(=O)c2c(O)c3ccccc3n(C)c2=O)nc1	–	inactive: 8.5%
Cc1ccc(-c2nn(CCC(=O)O)cc2/C=C\C(=O)c2ccc(Br)cc2)cc1	active: 35.5 µM	–
CCC(=O)N(CCC(c1ccco1)c1ccccc1OC)Cc1cccs1 (stereo unspecified)	inconclusive: 70.8 µM [inhibitor, single point]	–
Brc1ccc(C2=CSC3=NCCN23)cc1	–	inactive: -3.9%
Cc1cccc(Nc2nc(C)nc3c2oc2ccccc23)c1	–	inactive: 29.2%
CCCCC[C@H](O)/C=C/C=C\CCCCCCCC(=O)O	inconclusive: 39.8 µM [inhibitor, full curve]	–
Cc1cc(Br)ccc1OCCCCNC(C)(C)C	inconclusive: 56.2 µM [inhibitor, partial curve, poor fit]	–
Nc1nc(SCC(=O)c2ccc(F)cc2)n[nH]1	–	inactive: -1.5%
O=S(=O)(Nc1cc(Sc2ncn[nH]2)c(O)c2ccccc12)c1ccccc1	inconclusive: 5.62 µM [inhibitor, full curve, poor fit]	–
Cc1[nH]nc(SCC(=O)N2CCCC2)c1[N+](=O)[O-]	–	inactive: -21.8%
CC(=O)C(=Cc1ccc(C(=O)O)cc1)C(C)=O	inconclusive: 89.1 µM [inhibitor, single point]	–
CC1Oc2ccccc2C=C1/C=N/Nc1ccc(C(=O)O)cc1 (stereo unspecified)	inconclusive: 25.1 µM [inhibitor, single point]	–
COc1cccc(NC(=O)CC2S/C(=N\S(=O)(=O)c3ccccc3)N(c3ccccc3)C2=O)c1 (stereo unspecified)	–	inactive: -11.3%
CN(C)c1ccc(S(=O)(=O)N2CCCCC2)cc1NC(=O)C1=NN(c2ccccc2)C(=O)CC1	–	inactive: 2.81%
O=S(=O)(NCCc1ccccc1)c1ccccc1Br	–	inactive: -3.96%
COC(=O)c1ccc(/C=C2/SC(=S)N(CCC(=O)NCCCN3CCOCC3)C2=O)cc1	inconclusive: 79.4 µM [inhibitor, single point]	–
Cc1ccc(NC(=O)N2CCN(c3nnc(C)c4c(C)n(-c5ccc(Cl)cc5)nc34)CC2)c(C)c1	–	inactive: 0.0781%

Structure (SMILES)	Potency	max response, negative = inhibition
CCOc1cc(/C=C2/C(=O)NN(c3cccc(Cl)c3)C2=O)ccc1O	inconclusive: 89.1 µM [inhibitor, single point]	–
Nc1ccc(-c2cn3cccnc3n2)cc1	inconclusive: 89.1 µM [inhibitor, single point]	–
Nc1c(C(=O)O)sc2nc(-c3ccccc3)cc(-c3ccc(F)cc3)c12	inconclusive: 70.8 µM [inhibitor, partial curve]	–
CC(=O)NC(NC(C)=O)c1cccc(OCc2ccccc2)c1	inconclusive: 89.1 µM [inhibitor, single point]	–
CCOc1cc(CNc2ccc(N3CCCC3)cc2)cc(Cl)c1OC	inconclusive: 63.1 µM [inhibitor, partial curve, poor fit]	–
COc1cc(/C=N/NC(=O)Cn2cnc3c2c(=O)n(C)c(=O)n3C)ccc1O	inconclusive: 12.6 µM [inhibitor, partial curve, poor fit]	–
CCc1cc(=S)n2c([nH]c3ccccc32)c1C#N	inconclusive: 89.1 µM [inhibitor, single point]	–
CNC(=O)c1nc(C)n(-c2cc(Cl)ccc2Cl)n1	inconclusive: 3.55 µM [inhibitor, full curve, poor fit]	–
O=C1/C(=C\c2ccco2)SC(=S)N1c1ccccc1	–	inactive: 4.47%
CS(=O)(=O)c1ccc(C(=O)OCC(=O)NC23CC4CC(CC(C4)C2)C3)cc1[N+](=O)[O-]	inconclusive: 44.7 µM [inhibitor, partial curve]	–
CCc1ccc(S(=O)(=O)Nc2ccc3[nH]c(=O)sc3c2)cc1	–	inactive: 14.5%
COc1ccc(C(CC(=O)NCc2ccccc2)Sc2n[nH]c(-c3ccccc3)n2)cc1 (stereo unspecified)	–	inactive: -7.99%
N#CCc1ccc(NC(=O)Nc2cccc(Cl)c2)cc1	inconclusive: 89.1 µM [inhibitor, single point]	–
COc1cc(NC(=O)CCS(=O)(=O)c2nc(-c3ccc4c(c3)OCO4)cc(C(F)(F)F)n2)cc(OC)c1OC	inconclusive: 79.4 µM [inhibitor, partial curve]	–
CCSc1nnc(NC(=O)CSc2nccn2-c2cccc(C)c2C)s1	inconclusive: 25.1 µM [inhibitor, single point]	–
O=P(O)(O)OP(=O)(O)OP(=O)(O)O	–	inactive: 6.92%
COCCn1c(=O)c(-c2ccc(F)cc2)nc2cnc(N3CCOCC3)nc21	inconclusive: 39.8 µM [inhibitor, partial curve, poor fit]	–
COc1ccccc1NC(=O)C1CCN(S(=O)(=O)c2ccc3[nH]c4c(c3c2)CCCCC4)CC1	–	inactive: 2.15%
COc1ccc(NC(=O)C(OC)c2ccccc2)cc1Cl (stereo unspecified)	inconclusive: 3.98 µM [inhibitor, full curve, poor fit]	–
COc1ccc(N2CCN(C(CNC(=O)C3CCCCC3)c3ccco3)CC2)cc1 (stereo unspecified)	inconclusive: 35.5 µM [inhibitor, single point]	–
CC(=O)Nc1ccc(N=NN2CCOCC2)cc1	inconclusive: 25.1 µM [inhibitor, full curve, poor fit]	–
Cc1cccc(NC(=S)/N=C(\N)Nc2nc(C)c3cc(C)ccc3n2)c1	inconclusive: 56.2 µM [inhibitor, partial curve, poor fit]	–

Among those listed so far, these contain a CF3 group:
Structure (SMILES)	Potency	max response, negative = inhibition
CCOC(=O)C1=C(C(F)(F)F)Nc2ncnn2C1c1cc(OC)ccc1OC (stereo unspecified)	inconclusive: 63.1 µM [inhibitor, partial curve, poor fit]	–
CCOC(=O)N/N=C\c1ccc(-c2cccc(C(F)(F)F)c2)o1	inconclusive: 89.1 µM [inhibitor, single point]	–
COc1cc(NC(=O)CCS(=O)(=O)c2nc(-c3ccc4c(c3)OCO4)cc(C(F)(F)F)n2)cc(OC)c1OC	inconclusive: 79.4 µM [inhibitor, partial curve]	–
